Results reported in patent US9513253B2, “Droplet actuators and techniques for droplet-based enzymatic assays” (Advanced Liquid Logic, Inc., priority 2011, dated 2016).
At least one structure is not confirmed: it was looked up by name or label, or the drawing left a doubt.

Columns and labels:
[1] = partitioning of 4-MU between aqueous droplet phase and oil filler phase at low pH; type: physicochemical; conditions: 4-MU non-ionic and hydrophobic
[2] = cited from earlier work

For `Cc1cc(=O)oc2cc(O)ccc12` [4-MU, 4-methylumbelliferone], the “partitioning from the aqueous droplet phase into the oil filler phase” value [1] is given as 100:1 and the pK [2] is given as 7.9.
